In US6927215B2, “Heterocyclic fluoroalkenyl thioethers and the use thereof as pesticides (I)” (Bayer Cropscience AG, priority 2000, dated 2005):
Some of these results come from one statement about several compounds together.

Tested on: Adult Nippostrongylus brasiliensis
Assay: Nippostrongylus brasiliensis in-vitro (secreted acetylcholinesterase activity)
Format: cell-based
Details: active compound concentration 100 ppm

| Structure (SMILES) | activity class (acetylcholinesterase enzyme inhibition) |
| --- | --- |
| O=S1(=O)CSC(SCCCCC(F)=C(F)F)=N1 [Example 3] | good activity (2 means good activity) |
| CC1SC(SCCC=C(F)F)=NS1(=O)=O (racemic) [Example 8] | good activity (2 means good activity) |
| O=S1(=O)CCSC(SCCC=C(F)F)=N1 [Example 11] | weak activity (1 means weak activity) |
| O=S1(=O)CSC(SCCCCC=C(F)F)=N1 [Example 4] | weak activity (1 means weak activity) |
| O=S1(=O)CSC(SCCC=C(F)F)=N1 [Example 2] | weak activity (1 means weak activity) |
| CC1SC(SCCCCC=C(F)F)=NS1(=O)=O (racemic) [Example 10] | weak activity (1 means weak activity) |
| O=S1(=O)CCCSC(SCCCCC=C(F)F)=N1 [Example 16] | weak activity (1 means weak activity) |
| O=S1(=O)CCSC(SCCCCC=C(F)F)=N1 [Example 6] | good activity (2 means good activity) |
